Binding data for three molecules are collected here from patent US20240117326A1.

Chains of the proteins cited; added tags and fusions are not shown. Lines headed by an entry give the natural chain unless they say otherwise; changes in a name come on top.
UniProt P16267: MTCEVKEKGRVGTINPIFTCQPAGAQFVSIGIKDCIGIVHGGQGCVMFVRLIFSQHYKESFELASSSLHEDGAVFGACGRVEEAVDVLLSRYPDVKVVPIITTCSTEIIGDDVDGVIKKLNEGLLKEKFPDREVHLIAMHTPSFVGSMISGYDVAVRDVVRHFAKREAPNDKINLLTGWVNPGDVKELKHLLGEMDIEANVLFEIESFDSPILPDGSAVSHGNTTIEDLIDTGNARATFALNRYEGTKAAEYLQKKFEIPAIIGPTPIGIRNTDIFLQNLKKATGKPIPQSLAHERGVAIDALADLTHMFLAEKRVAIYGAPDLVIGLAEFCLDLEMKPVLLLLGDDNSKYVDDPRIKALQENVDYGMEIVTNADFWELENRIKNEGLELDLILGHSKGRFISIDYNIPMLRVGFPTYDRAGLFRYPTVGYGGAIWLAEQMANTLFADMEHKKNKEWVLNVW

The target of assay [1] is MPP-processed MTP-CoxIV::TwinStrep::AvAnfG fusion polypeptide (in SL93) (Azotobacter vinelandii). The experiment in a line: co-purification on Strep-tactin XT column through TwinStrep::AnfG (SL93), anaerobic; anti-HA Western blot of the eluate. Background: In western blotting, separated proteins are transferred to a membrane and probed.
Assay [2] addresses MPP-processed MTP-CoxIV::Twin Strep::AnfK fusion polypeptide (gene of SN195; in SL34, SL37, SL43) (Azotobacter vinelandii) (UniProt P16267). As to the kind of experiment: co-purification on Strep-tactin XT column through TwinStrep::AnfK (SL37), anaerobic; anti-HA Western blot of the eluate.

No constants are given. Whether binding was seen depends on the method and setting. In cells and extracts the contact can be indirect. Some binding calls cover weakened binding; strength is not graded here. Sequences can lack the tags named with a protein.

B1: unprocessed MTP-FAγ51::HA::AnfK fusion polypeptide (gene of SN129; in SL93) (enzyme)
chain: MAMAVFRREGRRLLPSIAARPIAAIRSPLSSDQEEGLLGVRSISTQVVRNRGGYPYDVPDYAGGMTCEVKEKGRVGTINPIFTCQPAGAQFVSIGIKDCIGIVHGGQGCVMFVRLIFSQHYKESFELASSSLHEDGAVFGACGRVEEAVDVLLSRYPDVKVVPIITTCSTEIIGDDVDGVIKKLNEGLLKEKFPDREVHLIAMHTPSFVGSMISGYDVAVRDVVRHFAKREAPNDKINLLTGWVNPGDVKELKHLLGEMDIEANVLFEIESFDSPILPDGSAVSHGNTTIEDLIDTGNARATFALNRYEGTKAAEYLQKKFEIPAIIGPTPIGIRNTDIFLQNLKKATGKPIPQSLAHERGVAIDALADLTHMFLAEKRVAIYGAPDLVIGLAEFCLDLEMKPVLLLLGDDNSKYVDDPRIKALQENVDYGMEIVTNADFWELENRIKNEGLELDLILGHSKGRFISIDYNIPMLRVGFPTYDRAGLFRYPTVGYGGAIWLAEQMANTLFADMEHKKNKEWVLNVW
As for B1, the binding entry in assay [1] is reported as “binds”.

B2: unprocessed MTP-FAγ51::HA::AnfD fusion polypeptide (gene of SN161; in SL93) (enzyme)
chain: MAMAVFRREGRRLLPSIAARPIAAIRSPLSSDQEEGLLGVRSISTQVVRNRGGYPYDVPDYAGGMPHHEFECSKVIPERKKHAVIKGKGETLADALPQGYLNTIPGSISERGCAYCGAKHVIGTPMKDVIHISHGPVGCTYDTWQTKRYISDNDNFQLKYTYATDVKEKHIVFGAEKLLKQNIIEAFKAFPQIKRMTIYQTCATALIGDDINAIAEEVMEEMPEVDIFVCNSPGFAGPSQSGGHHKINIAWINQKVGTVEPEITGDHVINYVGEYNIQGDQEVMVDYFKRMGIQVLSTFTGNGSYDGLRAMHRAHLNVLECARSAEYICNELRVRYGIPRLDIDGFGFKPLADSLRKIGMFFGIEDRAKAIIDEEVARWKPELDWYKERLMGKKVCLWPGGSKLWHWAHVIEEEMGLKVVSVYTKFGHQGDMEKGIARCGEGTLAIDDPNELEGLEALEMLKPDIILTGKRPGEVAKKVRVPYLNAHAYHNGPYKGFEGWVRFARDIYNAIYSPIHQLSGIDITKDNAPEWGNGFRTRQMLSDGNLSDAVRNSETLRQYTGGYDSVSKLREREYPAFERKVG
Regarding B2, the binding entry in assay [1] was “binds”.

B3: unprocessed MTP-FAγ51::AnfD::HA fusion polypeptide (gene of SN81; in SL37) (enzyme)
chain: MMAMAVFRREGRRLLPSIAARPIAAIRSPLSSDQEEGLLGVRSISTQVVRNRGGMPHHEFECSKVIPERKKHAVIKGKGETLADALPQGYLNTIPGSISERGCAYCGAKHVIGTPMKDVIHISHGPVGCTYDTWQTKRYISDNDNFQLKYTYATDVKEKHIVFGAEKLLKQNIIEAFKAFPQIKRMTIYQTCATALIGDDINAIAEEVMEEMPEVDIFVCNSPGFAGPSQSGGHHKINIAWINQKVGTVEPEITGDHVINYVGEYNIQGDQEVMVDYFKRMGIQVLSTFTGNGSYDGLRAMHRAHLNVLECARSAEYICNELRVRYGIPRLDIDGFGFKPLADSLRKIGMFFGIEDRAKAIIDEEVARWKPELDWYKERLMGKKVCLWPGGSKLWHWAHVIEEEMGLKVVSVYTKFGHQGDMEKGIARCGEGTLAIDDPNELEGLEALEMLKPDIILTGKRPGEVAKKVRVPYLNAHAYHNGPYKGFEGWVRFARDIYNAIYSPIHQLSGIDITKDNAPEWGNGFRTRQMLSDGNLSDAVRNSETLRQYTGGYDSVSKLREREYPAFERKVGGGYPYDVPDYA
As to B3, in assay [2], the binding result is reported as “binds”.
